Results reported in paper doi:10.1101/2024.12.01.626216.
Read-outs that look alike come from different tables or passages of the source. These are yes or no findings as the source states them, for the method shown. In cells and extracts the contact can be indirect. A yes stands for co-enrichment or nearness to the bait. Other partners may have been found. For some assays here: No binding means not detected with the bait. Values belong to the molecule of their own block, whether it stands above or below them.

The chains behind the UniProt entries cited, without tags or fusion partners.
UniProt P35637: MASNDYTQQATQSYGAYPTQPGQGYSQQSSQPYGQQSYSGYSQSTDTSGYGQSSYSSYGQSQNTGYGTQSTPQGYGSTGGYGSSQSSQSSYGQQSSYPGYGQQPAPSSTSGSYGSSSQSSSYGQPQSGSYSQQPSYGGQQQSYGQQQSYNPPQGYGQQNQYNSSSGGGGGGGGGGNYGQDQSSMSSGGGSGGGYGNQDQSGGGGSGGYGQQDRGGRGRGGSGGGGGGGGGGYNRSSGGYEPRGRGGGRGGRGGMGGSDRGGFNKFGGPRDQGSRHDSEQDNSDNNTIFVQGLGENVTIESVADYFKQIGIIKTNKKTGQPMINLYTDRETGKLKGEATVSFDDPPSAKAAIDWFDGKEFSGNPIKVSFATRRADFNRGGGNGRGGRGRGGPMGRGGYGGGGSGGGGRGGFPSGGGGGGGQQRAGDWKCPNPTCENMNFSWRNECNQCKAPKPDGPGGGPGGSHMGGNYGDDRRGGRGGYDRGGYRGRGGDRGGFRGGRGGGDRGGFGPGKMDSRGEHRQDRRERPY
UniProt P68366: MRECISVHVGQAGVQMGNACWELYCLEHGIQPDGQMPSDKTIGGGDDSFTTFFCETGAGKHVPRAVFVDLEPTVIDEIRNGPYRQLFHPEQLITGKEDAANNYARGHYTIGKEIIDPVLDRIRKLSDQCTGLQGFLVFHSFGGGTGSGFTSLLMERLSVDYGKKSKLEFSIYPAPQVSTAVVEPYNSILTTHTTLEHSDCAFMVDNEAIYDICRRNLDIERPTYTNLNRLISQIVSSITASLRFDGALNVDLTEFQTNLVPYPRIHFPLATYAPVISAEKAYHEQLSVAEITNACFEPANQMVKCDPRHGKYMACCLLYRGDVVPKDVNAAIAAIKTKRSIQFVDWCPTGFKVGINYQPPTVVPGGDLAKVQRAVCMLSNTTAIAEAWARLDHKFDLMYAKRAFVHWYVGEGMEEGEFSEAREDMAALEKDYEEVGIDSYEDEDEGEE
UniProt P68363: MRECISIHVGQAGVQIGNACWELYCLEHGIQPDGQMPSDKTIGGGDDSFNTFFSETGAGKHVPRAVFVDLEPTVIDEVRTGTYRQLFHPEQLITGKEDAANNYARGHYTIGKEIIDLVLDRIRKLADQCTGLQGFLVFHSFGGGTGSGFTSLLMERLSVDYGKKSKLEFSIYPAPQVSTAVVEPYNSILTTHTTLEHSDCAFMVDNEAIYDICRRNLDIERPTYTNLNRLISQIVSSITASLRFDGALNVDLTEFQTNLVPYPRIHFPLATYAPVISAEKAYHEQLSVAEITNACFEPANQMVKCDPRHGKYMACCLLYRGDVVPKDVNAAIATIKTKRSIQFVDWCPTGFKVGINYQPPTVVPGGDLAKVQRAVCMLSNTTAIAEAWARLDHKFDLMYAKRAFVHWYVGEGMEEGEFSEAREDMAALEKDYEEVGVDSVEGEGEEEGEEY

What was measured:
[1] = biological target: T1, DNAJC7 (human (endogenous in iPSC-derived motor neurons)) (UniProt Q99615); test: affinity purification with mass spectrometry; immunoprecipitation of endogenous DNAJC7 from wild-type iPSC-derived human motor neurons (DNAJC7 antibody covalently linked to beads), IgG control IP, LC-MS/MS, 3 independent differentiations
T1 sequence: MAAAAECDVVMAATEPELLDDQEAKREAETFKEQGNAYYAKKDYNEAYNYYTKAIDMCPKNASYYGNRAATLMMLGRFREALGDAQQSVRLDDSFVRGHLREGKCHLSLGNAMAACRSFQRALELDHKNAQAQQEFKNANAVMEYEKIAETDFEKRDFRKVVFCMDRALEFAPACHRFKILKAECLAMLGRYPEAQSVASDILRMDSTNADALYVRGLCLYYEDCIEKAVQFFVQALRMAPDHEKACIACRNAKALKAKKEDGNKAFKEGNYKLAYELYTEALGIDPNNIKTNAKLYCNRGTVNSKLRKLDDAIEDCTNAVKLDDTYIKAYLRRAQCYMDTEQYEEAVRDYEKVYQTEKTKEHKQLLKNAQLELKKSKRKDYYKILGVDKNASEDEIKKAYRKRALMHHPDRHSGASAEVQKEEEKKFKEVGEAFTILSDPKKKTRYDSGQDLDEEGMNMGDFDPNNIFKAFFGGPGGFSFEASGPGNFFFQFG

[2] = biological target: T1, DNAJC7 (human (endogenous in iPSC-derived motor neurons)); test: as above; remark: listed apart in the source

- binding [1]: no binding
Molecule: FUS (from UniProt P35637 1-526)

- binding [1]: binds
Molecule: HNRNPK (from UniProt P61978 1-463)

- binding [1]: binds
Molecule: TUBA4A (from UniProt P68366 1-448)

More lines, now with the values behind:

Molecule: TUBA1B (from UniProt P68363 1-451)
- binding [1]: binds

B1: MATR3 (protein, UniProt P43243 1-847)
chain: MSKSFQQSSLSRDSQGHGRDLSAAGIGLLAAATQSLSMPASLGRMNQGTARLASLMNLGMSSSLNQQGAHSALSSASTSSHNLQSIFNIGSRGPLPLSSQHRGDADQASNILASFGLSARDLDELSRYPEDKITPENLPQILLQLKRRRTEEGPTLSYGRDGRSATREPPYRVPRDDWEEKRHFRRDSFDDRGPSLNPVLDYDHGSRSQESGYYDRMDYEDDRLRDGERCRDDSFFGETSHNYHKFDSEYERMGRGPGPLQERSLFEKKRGAPPSSNIEDFHGLLPKGYPHLCSICDLPVHSNKEWSQHINGASHSRRCQLLLEIYPEWNPDNDTGHTMGDPFMLQQSTNPAPGILGPPPPSFHLGGPAVGPRGNLGAGNGNLQGPRHMQKGRVETSRVVHIMDFQRGKNLRYQLLQLVEPFGVISNHLILNKINEAFIEMATTEDAQAAVDYYTTTPALVFGKPVRVHLSQKYKRIKKPEGKPDQKFDQKQELGRVIHLSNLPHSGYSDSAVLKLAEPYGKIKNYILMRMKSQAFIEMETREDAMAMVDHCLKKALWFQGRCVKVDLSEKYKKLVLRIPNRGIDLLKKDKSRKRSYSPDGKESPSDKKSKTDGSQKTESSTEGKEQEEKSGEDGEKDTKDDQTEQEPNMLLESEDELLVDEEEAAALLESGSSVGDETDLANLGDVASDGKKEPSDKAVKKDGSASAAAKKKLKKVDKIEELDQENEAALENGIKNEENTEPGAESSENADDPNKDTSENADGQSDENKDDYTIPDEYRIGPYQPNVPVGIDYVIPKTGFYCKLCSLFYTNEEVAKNTHCSSLPHYQKLKKFLNKLAEERRQKKET
- binding [2]: binds
